Results: PMC8111302
Results are given in words; binding and its absence hold for the method and conditions named. In cells and extracts the contact can be indirect. Some binding calls cover weakened binding; strength is not graded here.

Amino acid sequences for entries named in this document (tags omitted).
UniProt Q00987: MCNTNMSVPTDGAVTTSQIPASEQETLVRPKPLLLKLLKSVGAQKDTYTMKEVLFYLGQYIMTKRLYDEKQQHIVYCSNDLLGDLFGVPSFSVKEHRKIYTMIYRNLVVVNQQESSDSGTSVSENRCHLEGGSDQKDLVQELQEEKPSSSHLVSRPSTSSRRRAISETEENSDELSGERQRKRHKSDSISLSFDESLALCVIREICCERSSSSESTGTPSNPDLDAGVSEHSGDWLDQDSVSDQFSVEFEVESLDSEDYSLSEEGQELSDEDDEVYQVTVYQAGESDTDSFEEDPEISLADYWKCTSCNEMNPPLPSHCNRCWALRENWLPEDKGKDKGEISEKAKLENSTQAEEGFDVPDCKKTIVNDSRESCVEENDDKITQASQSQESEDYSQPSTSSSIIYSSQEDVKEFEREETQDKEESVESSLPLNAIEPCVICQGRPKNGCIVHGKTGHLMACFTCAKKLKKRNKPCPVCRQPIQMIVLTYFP
UniProt Q9UNE7: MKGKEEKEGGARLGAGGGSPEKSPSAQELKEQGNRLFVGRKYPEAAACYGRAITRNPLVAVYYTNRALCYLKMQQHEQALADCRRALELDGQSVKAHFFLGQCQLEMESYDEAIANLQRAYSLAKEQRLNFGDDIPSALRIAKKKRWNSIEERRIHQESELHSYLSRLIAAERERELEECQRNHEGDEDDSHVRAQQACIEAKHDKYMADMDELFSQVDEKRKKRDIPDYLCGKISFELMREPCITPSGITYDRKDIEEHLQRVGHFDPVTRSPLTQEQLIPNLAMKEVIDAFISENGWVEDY
UniProt P03372: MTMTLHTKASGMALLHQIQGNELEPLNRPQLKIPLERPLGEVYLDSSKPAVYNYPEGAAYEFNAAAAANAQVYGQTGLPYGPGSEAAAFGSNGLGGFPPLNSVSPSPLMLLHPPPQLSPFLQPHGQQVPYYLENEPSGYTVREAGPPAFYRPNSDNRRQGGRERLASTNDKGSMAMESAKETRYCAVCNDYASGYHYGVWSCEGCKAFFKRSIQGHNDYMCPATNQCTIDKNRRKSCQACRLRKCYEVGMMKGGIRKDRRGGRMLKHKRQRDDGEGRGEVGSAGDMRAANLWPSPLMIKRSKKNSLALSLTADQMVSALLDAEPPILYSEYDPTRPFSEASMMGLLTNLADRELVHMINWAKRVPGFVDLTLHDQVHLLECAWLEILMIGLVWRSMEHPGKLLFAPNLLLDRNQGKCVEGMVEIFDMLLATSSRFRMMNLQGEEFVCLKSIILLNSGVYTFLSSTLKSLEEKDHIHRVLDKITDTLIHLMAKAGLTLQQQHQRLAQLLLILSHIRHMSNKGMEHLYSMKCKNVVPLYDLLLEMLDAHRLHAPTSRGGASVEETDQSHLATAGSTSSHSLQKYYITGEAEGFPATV
UniProt Q92731: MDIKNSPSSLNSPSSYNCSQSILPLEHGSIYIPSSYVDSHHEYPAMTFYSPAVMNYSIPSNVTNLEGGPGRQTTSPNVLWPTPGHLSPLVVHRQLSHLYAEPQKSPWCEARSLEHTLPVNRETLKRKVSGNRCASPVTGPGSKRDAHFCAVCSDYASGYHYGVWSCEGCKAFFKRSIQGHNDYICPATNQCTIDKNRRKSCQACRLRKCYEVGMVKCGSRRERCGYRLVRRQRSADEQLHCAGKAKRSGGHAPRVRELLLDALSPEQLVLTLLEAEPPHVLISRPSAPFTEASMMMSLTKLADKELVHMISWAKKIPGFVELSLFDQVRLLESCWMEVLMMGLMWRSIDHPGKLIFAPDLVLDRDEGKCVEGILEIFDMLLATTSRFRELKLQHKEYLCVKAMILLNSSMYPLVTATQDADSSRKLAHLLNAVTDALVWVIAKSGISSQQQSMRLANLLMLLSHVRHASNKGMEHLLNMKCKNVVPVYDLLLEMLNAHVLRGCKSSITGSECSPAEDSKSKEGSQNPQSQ

Legend:
[1] = molecular target: HA-MDM2 (mouse double minute 2) (UniProt Q00987); test: co-IP; MDM2 and ERα overexpressed in HESCs-En cells; precipitating antibody not stated
[2] = molecular target: HA-CHIP (hsc70-interacting protein) (UniProt Q9UNE7); test: co-IP; HESCs-En cells transfected with HA-CHIP and FLAG-ERα or FLAG-ERβ; lysate precipitated with HA antibody and Protein A + G beads

| binding [1] | binding [2] | Substance |
| --- | --- | --- |
| binds | binds | FLAG-ERα (estrogen receptor α) (from UniProt P03372 1-595) |
|  | binds | FLAG-ERβ (estrogen receptor β) (from UniProt Q92731 1-530) |
